# Some of these results come from one statement about several compounds together.
# Assays:
# [1] = system: ALLC (amyloidogenic light chain); assay: Light chain ELISA, ALLC from ALMC-2 plasma cells; format: cell-based, human; conditions: ALMC-2 cells, 10 μM pretreatment
# Method: ALMC-2 or KAS-6/1 plasma cells were plated 100,000 cells/well in 150 μL of media in 96-well MultiScreenHTS filtration plates (Millipore MSBVS1210). Triplicate wells were treated with DMSO or compounds at the indicated concentrations and incubated for 16 h. Media was removed by filtration using a QIAvac 96 vacuum manifold (Qiagen) and wells were washed two times with 150 μL media. Wells were then incubated with 150 μL of fresh media for 2 hr and the conditioned media was harvested into a 96-well plate using the vacuum manifold. Free λLC and IgG concentrations were determined by ELISA in 96-well plates (Immulon 4HBX, Thermo Scientific). Wells were coated overnight at 37° C. with rabbit anti-human A light chain polyclonal antibody (Bethyl Laboratories, A90-112A) at a 1:1000 dilution or human IgG-heavy and light chain antibody (Bethyl Laboratories, A80-118A) at a 1:2000 dilution in 50 mM sodium carbonate (pH 9.6). In between all incubation steps, the plates were rinsed extensively with Tris-buffered saline containing 0.05% Tween-20 (TBST). Plates were blocked with 5% non-fat dry milk in TBST for 1 h at 37° C. Media analytes were diluted between 5-200 fold in 5% non-fat dry milk in TBST and 100 μL of each sample was added to individual wells. Light chain or IgG standards ranging from 3-300 ng/mL were prepared from purified human Bence Jones A light chain or human reference serum (Bethyl Laboratories, P80-127 and RS10-110). Plates were incubated at 37° C. for 1.5 h while shaking. Finally, HRP-conjugated goat anti-human A light chain antibody (Bethyl Laboratories, A80-116P) was added at a 1:10,000 dilution or HRP-conjugate IgG-Fc fragment cross-adsorbed antibody (Bethyl Laboratories, A80-304P, 1:30,000 dilution) was added in 5% non-fat dry milk in TBST, followed by a 1.5 h incubation of the plates at 37° C. […] The absorbance was recorded at 405 nm and the values for the LC standards were fitted to a 4-parameter logistic function. […]
# HEK293T-Rex cells = assay: mRNA-Seq transcriptional profiling and geneset analysis in HEK293T-Rex cells; format: cell-based, human; conditions: 10 μM, 6 h, ER proteostasis genes
# Method: HEK293T-Rex and HEK293^DAX cells in 12-well plates were treated for 6 h with vehicle, 1 μM Tg, 10 μM TMP (in HEK293^DAX), or 10 μM 132, 147 or 263 in biological triplicate at 37° C. Cells were harvested, and RNA was extracted using the RNeasy Mini Kit (Qiagen). Total RNA was quantified using NanoDrop (ND-1000). Samples were run on the Illuina HiSeq system.
# Single end, 100 bp-long reads from RNA-Seq experiments were aligned to the GRCh37.p13 human genome reference assembly using SeqMan NGen 11.2.1 (DNAStar, Inc.). The assembly data were then imported into ArrayStar with QSeq (DNAStar, Inc.) to quantify the gene expression levels. The sequence counts were normalized to reads per kilobase per million (RPKM) after filtering out non-mRNA sequence features. The statistical significance of the difference between the expression levels of a gene under different conditions was assessed using a Student's t-test with the Benjamini-Hochberg multiple testing correction.
# ATF6- and XBP1s-selective target genes were identified from transcriptional profiles of HEK293D^X cells following stress-independent activation of TMP-dependent DHFR-ATF6 and/or tetracycline inducible XBP1s, as previously described^4. […] Differential activation of the ATF6, XBP1s, and PERK genesets was assessed by one-way ANOVA and significance of pairwise comparison confirmed by unpaired t-test. […]
Compound,reduction of ALLC secretion [1] [%],slope of log2 mRNA fold change with compound versus with Tg (HEK293T-Rex cells)
Cc1ccc(O)c(N/C=C/C(=O)c2ccc(F)cc2)c1 [Compound 132],> 50,
CCCc1cc(C(=O)Nc2cc(C)ccc2O)no1 [Compound 145],> 50,
Cc1ccc(O)c(NC(=O)CCc2ccccc2)c1 [Compound 147],> 50,< 1
O=[N+]([O-])c1ccc(N/N=C/c2ccccc2O)cc1 [Compound 263],,< 1

# — patent US11135186B2, “Regulators of the endoplasmic reticulum proteostasis network” (The Scripps Research Institute, priority 2015, dated 2021)
